Results are given in words; binding and its absence hold for the method and conditions named. Some entries that bind do so weakly or less than the wild type.
B1: 3SPC11 (VHH)
VHH: QVQLQESGGGLVQPGGSLRLSCTASGSIAAFGWYRQAPGKQREFVANMYVGGSIRYSDSVKGRFTISKDNAKNTAYLQMNILKPEDTAVYYCNALVRFEGRNDDYWGQGTQVTVSS
B2: 2TIC105 (VHH)
VHH: QVQLQESGGGLVQAGGSLRLSCATSTFPFTMNNMGWYRQAPGKERELVAAITNDGSITYTDSVKGRFTISRDNARNTLYLQMNSLKPEDTAVYYCNRGTGPSYPWGQGTQVTVSS
B3: 3TIC157 (VHH)
VHH: QVQLQESGGGLMQPGGSLRLSCAGTNFLSSRFEMGWYRQIPGKQRELVARIFRDGNTDYVDSVKGRFTISRDTAKNTIDLQMNNLKPEDTAGYFCHVHILGRDYWGQGTQVTVSS
B4: 3TIC34 (VHH)
VHH: QVQLQESGGGLVQAGGSLRLSCAASGGTFSNYGMGWFRQAPGKEREFVATINWSGAITHYADSVKGRFSISRDNAKNTVYLQMNSLKPDDTAVYYCAAVTRYGGYADSRPQWYDSWGQGTQVTVSS

target: calreticulin on the surface of HL-60 cells (acute promyelocytic leukemia cell line; ATCC CCL-240) (human) (UniProt P27797); test: flow cytometry on HL-60 cells, 400 ug/ml nanobody, anti-alpaca-AF647 secondary

binding, binds:
B1
B2
B3
B4

From patent US20230416348A1
